# Assay results from the supplement of paper PMC8728848.
# Some of the results follow.
# B1: CBP21 (Serratia marcescens), O83009 (protein)
# chain: MNKTSRTLLSLGLLSAAMFGVSQQANAHGYVESPASRAYQCKLQLNTQCGSVQYEPQSVEGLKGFPQAGPADGHIASADKSTFFELDQQTPTRWNKLNLKTGPNSFTWKLTARHSTTSWRYFITKPNWDASQPLTRASFDLTPFCQFNDGGAIPAAQVTHQCNIPADRSGSHVILAVWDIADTANAFYQAIDVNLSK
# Assays:
# Experiment in all cases: glycan array binding signal (z-score within array); higher = stronger binding
# Conditions in all cases: glycan notation: IUPAC condensed, linker removed
# [1] = target: Gal(b1-4)GlcNAc(b1-3)Gal(b1-4)GlcNAc(b1-3)[Gal(b1-4)GlcNAc(b1-3)Gal(b1-4)GlcNAc(b1-6)]GalNAc
# Procedure, shortened: (§1)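 From the Consortium for Functional Glycomics database, 3228 arrays were curated, keeping only those whose protein sequence was available. Binding is given as a within-array Z-score averaged across arrays sharing a protein sequence and across linkers. Negative Z-scores can be read as non-binding.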
# [2] = target: Gal(b1-4)GlcNAc(b1-3)Gal(b1-4)GlcNAc(b1-6)[Gal(b1-3)]GalNAc
# Procedure, shortened: as §1
# [3] = target: Gal(b1-4)GlcNAc(b1-3)Gal(b1-4)[Fuc(a1-3)]GlcNAc(b1-3)Gal(b1-4)[Fuc(a1-3)]GlcNAc
# Procedure, shortened: as §1
# [4] = target: Gal(b1-4)GlcNAc(b1-3)GalNAc
# Procedure, shortened: as §1
# [5] = target: Gal(b1-4)GlcNAc(b1-3)[Fuc(a1-3)GlcNAc(b1-6)]Gal(b1-4)Glc
# Procedure, shortened: as §1
# [6] = target: Gal(b1-4)GlcNAc(b1-3)[Gal(b1-4)GlcNAc(b1-6)]Gal(b1-4)GlcNAc
# Procedure, shortened: as §1
# [7] = target: Gal(b1-4)GlcNAc(b1-3)[GlcNAc(b1-6)]Gal(b1-4)GlcNAc
# Procedure, shortened: as §1
# [8] = target: Gal(b1-4)GlcNAc(b1-6)Gal(b1-4)GlcNAc
# Procedure, shortened: as §1
# [9] = target: Gal(b1-4)GlcNAc(b1-6)GalNAc
# Procedure, shortened: as §1
# [10] = target: Gal(b1-4)GlcNAc(b1-6)[Gal(b1-3)]GalNAc
# Procedure, shortened: as §1
# [11] = target: Gal(b1-4)GlcNAc(b1-6)[Gal(b1-4)GlcNAc(b1-3)]GalNAc
# Procedure, shortened: as §1
# Gal(b1-4)GlcNAc6P = target: Gal(b1-4)GlcNAc6P
# Procedure, shortened: as §1
# Gal(b1-6)Gal = target: Gal(b1-6)Gal
# Procedure, shortened: as §1
# Gal3S(b1-3)GalNAc = target: Gal3S(b1-3)GalNAc
# Procedure, shortened: as §1
# Gal3S(b1-3)GlcNAc = target: Gal3S(b1-3)GlcNAc
# Procedure, shortened: as §1
# [12] = target: Gal3S(b1-3)[Fuc(a1-4)]GlcNAc
# Procedure, shortened: as §1
# Gal3S(b1-4)Glc = target: Gal3S(b1-4)Glc
# Procedure, shortened: as §1
# Gal3S(b1-4)Glc6S = target: Gal3S(b1-4)Glc6S
# Procedure, shortened: as §1
# Gal3S(b1-4)GlcNAc = target: Gal3S(b1-4)GlcNAc
# Procedure, shortened: as §1
# [13] = target: Gal3S(b1-4)[Fuc(a1-3)]Glc6S
# Procedure, shortened: as §1
# [14] = target: Gal3S(b1-4)[Fuc(a1-3)]GlcNAc
# Procedure, shortened: as §1
# [15] = target: Gal3S(b1-4)[Fuc(a1-3)]GlcNAc6S
# Procedure, shortened: as §1
# Gal3S4S(b1-4)GlcNAc = target: Gal3S4S(b1-4)GlcNAc
# Procedure, shortened: as §1
# Gal3S6S(b1-4)GlcNAc = target: Gal3S6S(b1-4)GlcNAc
# Procedure, shortened: as §1
# Gal3S6S(b1-4)GlcNAc6S = target: Gal3S6S(b1-4)GlcNAc6S
# Procedure, shortened: as §1
# Gal4S(b1-4)GlcNAc = target: Gal4S(b1-4)GlcNAc
# Procedure, shortened: as §1
# Gal4S6S(b1-4)GlcNAc = target: Gal4S6S(b1-4)GlcNAc
# Procedure, shortened: as §1
# Gal6P(b1-4)GlcNAc = target: Gal6P(b1-4)GlcNAc
# Procedure, shortened: as §1
# Gal6S(b1-3)GlcNAc = target: Gal6S(b1-3)GlcNAc
# Procedure, shortened: as §1
# Gal6S(b1-3)GlcNAc6S = target: Gal6S(b1-3)GlcNAc6S
# Procedure, shortened: as §1
# Gal6S(b1-4)Glc = target: Gal6S(b1-4)Glc
# Procedure, shortened: as §1
# Gal6S(b1-4)Glc6S = target: Gal6S(b1-4)Glc6S
# Procedure, shortened: as §1
# Gal6S(b1-4)GlcNAc = target: Gal6S(b1-4)GlcNAc
# Procedure, shortened: as §1
# Gal6S(b1-4)GlcNAc6S = target: Gal6S(b1-4)GlcNAc6S
# Procedure, shortened: as §1
# GalNAc(a1-3)Gal = target: GalNAc(a1-3)Gal
# Procedure, shortened: as §1
# GalNAc(a1-3)GalNAc = target: GalNAc(a1-3)GalNAc
# Procedure, shortened: as §1
# [16] = target: GalNAc(a1-3)GalNAc(b1-3)Gal(a1-4)Gal(b1-4)Glc
# Procedure, shortened: as §1
# [17] = target: GalNAc(a1-3)GalNAc(b1-3)Gal(a1-4)Gal(b1-4)GlcNAc
# Procedure, shortened: as §1
# GalNAc(b1-3)Gal = target: GalNAc(b1-3)Gal
# Procedure, shortened: as §1
# [18] = target: GalNAc(b1-3)Gal(a1-4)Gal(b1-4)GlcNAc
# Procedure, shortened: as §1
# [19] = target: GalNAc(b1-3)Gal(a1-4)Gal(b1-4)GlcNAc(b1-3)Gal(b1-4)Glc
# Procedure, shortened: as §1
# [20] = target: GalNAc(b1-3)Gal(a1-6)Gal(b1-4)Glc
# Procedure, shortened: as §1
# GalNAc(b1-3)GalNAc = target: GalNAc(b1-3)GalNAc
# Procedure, shortened: as §1
# GalNAc(b1-3)GlcNAc = target: GalNAc(b1-3)GlcNAc
# Procedure, shortened: as §1
# GalNAc(b1-4)Gal(b1-4)Glc = target: GalNAc(b1-4)Gal(b1-4)Glc
# Procedure, shortened: as §1
binder,measurement,setting,value
B1,glycan array binding signal (z-score),[1],0.917
same,glycan array binding signal (z-score),[2],0.071
same,glycan array binding signal (z-score),[3],-0.565
same,glycan array binding signal (z-score),[4],0.076
same,glycan array binding signal (z-score),[5],0.366
same,glycan array binding signal (z-score),[6],0.23
same,glycan array binding signal (z-score),[7],2.17
same,glycan array binding signal (z-score),[8],-1.25
same,glycan array binding signal (z-score),[9],0.422
same,glycan array binding signal (z-score),[10],0.712
same,glycan array binding signal (z-score),[11],0.317
same,glycan array binding signal (z-score),Gal(b1-4)GlcNAc6P,-0.389
same,glycan array binding signal (z-score),Gal(b1-6)Gal,-0.589
same,glycan array binding signal (z-score),Gal3S(b1-3)GalNAc,0.639
same,glycan array binding signal (z-score),Gal3S(b1-3)GlcNAc,-0.204
same,glycan array binding signal (z-score),[12],0.337
same,glycan array binding signal (z-score),Gal3S(b1-4)Glc,-0.647
same,glycan array binding signal (z-score),Gal3S(b1-4)Glc6S,-0.559
same,glycan array binding signal (z-score),Gal3S(b1-4)GlcNAc,1.21
same,glycan array binding signal (z-score),[13],0.416
same,glycan array binding signal (z-score),[14],0.872
same,glycan array binding signal (z-score),[15],0.76
same,glycan array binding signal (z-score),Gal3S4S(b1-4)GlcNAc,0.715
same,glycan array binding signal (z-score),Gal3S6S(b1-4)GlcNAc,0.23
same,glycan array binding signal (z-score),Gal3S6S(b1-4)GlcNAc6S,-0.494
same,glycan array binding signal (z-score),Gal4S(b1-4)GlcNAc,-1.04
same,glycan array binding signal (z-score),Gal4S6S(b1-4)GlcNAc,0.197
same,glycan array binding signal (z-score),Gal6P(b1-4)GlcNAc,1.34
same,glycan array binding signal (z-score),Gal6S(b1-3)GlcNAc,0.882
same,glycan array binding signal (z-score),Gal6S(b1-3)GlcNAc6S,0.326
same,glycan array binding signal (z-score),Gal6S(b1-4)Glc,-0.3
same,glycan array binding signal (z-score),Gal6S(b1-4)Glc6S,-0.747
same,glycan array binding signal (z-score),Gal6S(b1-4)GlcNAc,-1.16
same,glycan array binding signal (z-score),Gal6S(b1-4)GlcNAc6S,0.369
same,glycan array binding signal (z-score),GalNAc(a1-3)Gal,0.687
same,glycan array binding signal (z-score),GalNAc(a1-3)GalNAc,-0.263
same,glycan array binding signal (z-score),[16],-1.73
same,glycan array binding signal (z-score),[17],1.85
same,glycan array binding signal (z-score),GalNAc(b1-3)Gal,1.39
same,glycan array binding signal (z-score),[18],-0.307
same,glycan array binding signal (z-score),[19],-0.455
same,glycan array binding signal (z-score),[20],0.058
same,glycan array binding signal (z-score),GalNAc(b1-3)GalNAc,-0.453
same,glycan array binding signal (z-score),GalNAc(b1-3)GlcNAc,-0.162
same,glycan array binding signal (z-score),GalNAc(b1-4)Gal(b1-4)Glc,1.03
